Results: patent US11013750B2, “Methods for treating and preventing nociceptive pain” (Aurin Biotech Inc., priority 2017, dated 2021)
For at least one compound, name, drawing or mass did not settle the structure.

Tested on: C5a formation (C5 convertase)
Experiment: Blockade of C5a formation, western blotting
Assay type: cell-based
Settings: 5 μM; SH-SY5Y cells, 10% human serum, zymosan 100 μg/ml, C1 inhibitor 5 μg/ml, 37° C. 1 h
Procedure: To verify that each of the inhibitors was acting by inhibiting formation of C5 convertase, western blotting experiments were carried out. Results are shown in illustrated in FIG. 4. SH-SY5Y human neuroblastoma cells (2×10^5 cells in 1 ml DMEM/F-12 medium including 10% human serum) were incubated with zymosan (100 μg/ml) in 24 well plates at 37° C. for 1 h with or without DAS (3 μM), ATA (5 μM), AQA (5 μM), or AHA (5 μM). To inhibit any classical pathway activation, C1 inhibitor (5 μg/ml) was added. Supernatants were obtained by centrifugation at 4000 g for 30 min through 30 K-filters (Amicon® Ultra-15, 30,000 NMWL, Millipore, Billerica, Mass.). The filtrates were dried and added to the loading buffer for SDS-PAGE (50-mM Tris (pH 6.8), 0.1% SDS, 0.1% bromophenol blue, and 10% glycerol). Proteins were separated in 10% polyacrylamide gels at 70V for 6 h. The proteins were then transferred to polyvinylidene difluoride (PVDF) membranes (Bio-Rad, CA) at 30 mA for 2 hours. After washing with PBS-T, the membranes were treated with a mouse monoclonal C5/C5a antibody (Abcam, Cambridge Mass., 1/2000) for 15 hours at 4° C. The membranes were then treated with an appropriate HRP-conjugated anti-mouse IgG (A3682, 1/3,000; Sigma) for 3 hours at room temperature. […]

SMILES: O=C(O)C1=CC(=C(c2ccc(O)c(C(=O)O)c2)c2ccc(O)c(C(=O)O)c2)C=CC1=O [ATA, aurin tricarboxylic acid]
- C5a formation (western blot): C5a was no longer formed
